These are yes or no findings as the source states them, for the method shown. In cells and extracts the contact can be indirect. Some binding calls cover weakened binding; strength is not graded here. Tags and fused reporters may be left off the sequences shown.

The record followed here is PMC6525239, “Hexameric NuMA:LGN structures promote multivalent interactions required for planar epithelial divisions” (Nature Communications, 2019).

This test concerns the target T1, LGN wild-type, expressed in HEK293T cells as two differently tagged copies (human) (UniProt P81274).
T1 sequence: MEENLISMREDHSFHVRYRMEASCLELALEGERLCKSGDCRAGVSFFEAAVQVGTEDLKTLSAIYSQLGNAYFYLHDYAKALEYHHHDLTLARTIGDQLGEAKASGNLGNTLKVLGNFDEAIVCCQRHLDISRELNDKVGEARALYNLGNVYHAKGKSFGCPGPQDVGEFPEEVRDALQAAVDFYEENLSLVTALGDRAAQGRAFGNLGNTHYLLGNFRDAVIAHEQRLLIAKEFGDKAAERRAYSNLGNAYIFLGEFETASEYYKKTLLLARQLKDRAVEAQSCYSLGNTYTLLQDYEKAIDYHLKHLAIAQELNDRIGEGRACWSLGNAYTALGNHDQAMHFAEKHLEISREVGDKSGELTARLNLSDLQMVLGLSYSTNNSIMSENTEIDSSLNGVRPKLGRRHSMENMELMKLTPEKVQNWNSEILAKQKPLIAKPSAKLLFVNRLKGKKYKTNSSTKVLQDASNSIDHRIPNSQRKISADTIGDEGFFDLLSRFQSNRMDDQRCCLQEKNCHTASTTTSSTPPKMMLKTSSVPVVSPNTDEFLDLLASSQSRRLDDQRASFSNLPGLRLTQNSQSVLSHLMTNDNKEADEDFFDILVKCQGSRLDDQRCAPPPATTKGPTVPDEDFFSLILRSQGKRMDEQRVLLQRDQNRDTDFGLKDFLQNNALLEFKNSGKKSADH
In words: co-IP; mitotic (nocodazole) lysates of HEK293T cells depleted of endogenous NuMA and expressing NuMA^1821–2115, co-transfected with GFP- and 3xFLAG-tagged LGN; anti-GFP agarose beads, 2 h at 4 °C; immunoblot. (In general: A western blot detects proteins with antibodies after separation by electrophoresis.)

B1: NuMA^1821–2115 (domain or fragment, UniProt Q14980 1821-2115)
chain: KKLDVEEPDSANSSFYSTRSAPASQASLRATSSTQSLARLGSPDYGNSALLSLPGYRPTTRSSARRSQAGVSSGAPPGRNSFYMGTCQDEPEQLDDWNRIAELQQRNRVCPPHLKTCYPLESRPSLSLGTITDEEMKTGDPQETLRRASMQPIQIAEGTGITTRQQRKRVSLEPHQGPGTPESKKATSCFPRPMTPRDRHEGRKQSTTEAQKKAAPASTKQADRRQSMAFSILNTPKKLGNSLLRRGASKKALSKASPNTRSGTRRSPRIATTTASAATAAAIGATPRAKGKAKH
On to B1, for which the binding result is reported as “binds”.

B2: LGN wild-type, expressed in HEK293T cells as two differently tagged copies (protein, UniProt P81274 1-684)
chain: MEENLISMREDHSFHVRYRMEASCLELALEGERLCKSGDCRAGVSFFEAAVQVGTEDLKTLSAIYSQLGNAYFYLHDYAKALEYHHHDLTLARTIGDQLGEAKASGNLGNTLKVLGNFDEAIVCCQRHLDISRELNDKVGEARALYNLGNVYHAKGKSFGCPGPQDVGEFPEEVRDALQAAVDFYEENLSLVTALGDRAAQGRAFGNLGNTHYLLGNFRDAVIAHEQRLLIAKEFGDKAAERRAYSNLGNAYIFLGEFETASEYYKKTLLLARQLKDRAVEAQSCYSLGNTYTLLQDYEKAIDYHLKHLAIAQELNDRIGEGRACWSLGNAYTALGNHDQAMHFAEKHLEISREVGDKSGELTARLNLSDLQMVLGLSYSTNNSIMSENTEIDSSLNGVRPKLGRRHSMENMELMKLTPEKVQNWNSEILAKQKPLIAKPSAKLLFVNRLKGKKYKTNSSTKVLQDASNSIDHRIPNSQRKISADTIGDEGFFDLLSRFQSNRMDDQRCCLQEKNCHTASTTTSSTPPKMMLKTSSVPVVSPNTDEFLDLLASSQSRRLDDQRASFSNLPGLRLTQNSQSVLSHLMTNDNKEADEDFFDILVKCQGSRLDDQRCAPPPATTKGPTVPDEDFFSLILRSQGKRMDEQRVLLQRDQNRDTDFGLKDFLQNNALLEFKNSGKKSADH
As for B2, the binding entry is given as “binds”.
